The record followed here is the supplement of paper PMC9135407.

Values joined by “and” are separate entries in the source; they are usually repeats but may differ in a detail not shown here. Equal entries are not always repeated. Structures can show the parent of a compound that is named as a salt. ± gives the standard deviation of the averaged measurements. The list shows a part of the results. Baselines shift from plate to plate; read single values as rough.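 Culture-activated primary human stellate myofibroblasts, where regained lipid droplets signal inactivation. Value: share of Hoechst-counted cells above a per-plate Bodipy cutoff, in duplicate wells, with DMSO negative and nortriptyline positive controls on each plate. Hits: a control-normalized score above the plate's top-tenth-percentile nortriptyline wells, or one of a plate's three best wells. Final well concentrations are not given.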

This assay deals with primary human hepatic stellate cells (donor 1). The assay can be described thus: percent Bodipy-positive cells; higher = more lipid droplet accumulation. The settings on record: 48 h.
[1] abbreviates: library stock concentration: 10 mM.
The mark [2] stands for this setting: library stock concentration: 3.33 mM.
[3] abbreviates: library stock concentration: 1 mM.
[4] abbreviates: library stock concentration: 80 uM.
Where [5] appears, read: library stock concentration: 400 uM.
The mark [6] stands for this setting: library stock concentration: 2 mM.

In the case of `O=C(O)CCCc1ccccc1`, the “percent Bodipy-positive cells” value under setting [1] turned out to be 23.8 ± 1.2%. Consider `O=C(O)CCCc1ccccc1` [Sodium Phenylbutyrate], for which the “percent Bodipy-positive cells” value reads like this: under setting [2], 11.8 ± 3.3%; under setting [1], 23.1 ± 6.9%.

On to `O=C(O)CCCc1ccccc1` [sodium 4-Phenylbutyrate], for which the “percent Bodipy-positive cells” value under setting [1] worked out at 5.85 ± 1.9%.

With `O=C(O)CCCc1ccccc1` [Sodium phenylbutyrate], under “library stock concentration: 10.7 mM”, the “percent Bodipy-positive cells” value was determined as 5.33 ± 0.38%. For the molecule `CC(C)Oc1ccc(C(=O)N[C@H](CNC(=O)CN(C)C)Cc2ccc(-c3cn4cccc([C@H](C)O)c4n3)cc2)cc1Cl`, the “percent Bodipy-positive cells” value under setting [2] amounted to 67.58 ± 0.47%. Take `COC(=O)Nc1nc2cc(C(=O)c3cccs3)ccc2[nH]1` [Nocodazole]: the “percent Bodipy-positive cells” value was 84 ± 2.6%.

As to `CCCCCC(O)C=CC1C(O)CC(O)C1CC=CCCCC(=O)OC` (stereo not drawn) [Prostaglandin F2.alpha. methyl ester], the “percent Bodipy-positive cells” value under setting [3] came out at 12.4 ± 5%. Regarding `O=C(O)COC(=O)Cc1ccccc1Nc1c(Cl)cccc1Cl` [Aceclofenac], the “percent Bodipy-positive cells” value was determined as 28.5 ± 1.8%.

Consider `OC1(c2ccc(Cl)c(C(F)(F)F)c2)CCN(CCCC(c2ccc(F)cc2)c2ccc(F)cc2)CC1` [Penfluridol], for which the “percent Bodipy-positive cells” value under setting [2] was 93.4 ± 4.7% and the “percent Bodipy-positive cells” value under setting [1] stood at 97.08 ± 0.84%.

Turning to `OC1(c2ccc(Cl)c(C(F)(F)F)c2)CCN(CCCC(c2ccc(F)cc2)c2ccc(F)cc2)CC1`, the “percent Bodipy-positive cells” value under setting [1] worked out at 93.4 ± 1.1%.

For `C[C@@H]1C[C@H]2[C@@H]3CCC4=CC(=O)C=C[C@]4(C)[C@@]3(F)[C@@H](O)C[C@]2(C)[C@@]1(O)C(=O)CO` [Dexamethasone (DHAP)], the “percent Bodipy-positive cells” value came out at 4.74 ± 1.3% under setting [2] and 25.1 ± 6.7% under setting [1]. Take `C[C@@H]1C[C@H]2[C@@H]3CCC4=CC(=O)C=C[C@]4(C)[C@@]3(F)[C@@H](O)C[C@]2(C)[C@@]1(O)C(=O)CO` [Dexamethasone]: the “percent Bodipy-positive cells” value (library stock concentration: 5.1 mM) is 4.24% and 2.25%; the “percent Bodipy-positive cells” value under setting [1] was 6.23% and 6.86% and 29.9%; the “percent Bodipy-positive cells” value (library stock concentration: 12.7 mM) was found to be 10.1 ± 3.1%. As for `c1ccc(CN2CCC3(CCc4ccccc43)CC2)cc1` [L-693,403 maleate], the “percent Bodipy-positive cells” value under setting [1] was found to be 49 ± 3.9%. Consider `COc1cc(NS(C)(=O)=O)ccc1Nc1c2ccccc2nc2ccccc12` [Amsacrine hydrochloride], for which the “percent Bodipy-positive cells” value under setting [1] turned out to be 100%. For `CCN1CCC[C@H]1CNC(=O)c1c(OC)ccc(Br)c1OC` [Remoxipride Hydrochloride], the “percent Bodipy-positive cells” value is 10.5 ± 3.7%. On to `CCN1CCC[C@H]1CNC(=O)c1c(OC)ccc(Br)c1OC` [Remoxipride], for which the “percent Bodipy-positive cells” value (library stock concentration: 5.4 mM) was 11.4 ± 2.2%. For the molecule `CCN1CCC[C@H]1CNC(=O)c1c(OC)ccc(Br)c1OC` [Remoxipride hydrochloride], the “percent Bodipy-positive cells” value under setting [1] stood at 9.54 ± 3.6%.

In the case of `FC(F)c1nc2ccccc2n1-c1nc(N2CCOCC2)nc(N2CCOCC2)n1`, the “percent Bodipy-positive cells” value is 12.6 ± 2.2% under setting [4], 9.23 ± 7.7% under setting [5], 6.19 ± 2.1% under setting [6] and 8.37 ± 0.85% under setting [2]. In the case of `O=C1NC(=O)/C(=C/c2ccc(-c3ccc(F)cc3O)o2)S1`, the “percent Bodipy-positive cells” value under setting [1] turned out to be 99.81 ± 0.27%. As to `Cc1cccc(Nc2nc(-c3ccncc3)cs2)c1`, the “percent Bodipy-positive cells” value under setting [2] was found to be 71.1 ± 12% and the “percent Bodipy-positive cells” value under setting [1] came out at 99.13 ± 0.19%.

Consider `CCN1CCN(c2cc3c(cc2F)c(=O)c(C(=O)O)cn3C2CC2)CC1`, for which, under setting [1], the “percent Bodipy-positive cells” value came to 8.42 ± 3.7%. Consider `O=C1C2CC3CC1CC(O)(C3)C2`, for which the “percent Bodipy-positive cells” value under setting [1] was determined as 45.1 ± 0.6%.

As to `CCCCCCCC/C=C\CCCCCCCC(=O)NCCS(=O)(=O)O` [N-Oleoyl Taurine], the “percent Bodipy-positive cells” value under setting [3] was 10.8 ± 1.3%. `C[C@@H](O)CCC[C@@H](O)/C=C/[C@H]1C(O)CC(O)C1CCCCCCC(=O)O` (stereo partly drawn) [15(R),19(R)-hydroxy Prostaglandin F1.alpha.]: under setting [3], the “percent Bodipy-positive cells” value came out at 16.4 ± 4.9%. On to `N=C(N)S/C=C\C(=O)O` [ZAPA sulphate], for which the “percent Bodipy-positive cells” value under setting [1] was determined as 7.213 ± 0.0042%. On to `Cc1nnc(NS(=O)(=O)c2ccc(N)cc2)s1` [Sulfamethizole], for which the “percent Bodipy-positive cells” value amounted to 7.06 ± 1.4%. Moreover, under setting [2], the “percent Bodipy-positive cells” value worked out at 8.08 ± 1.6%. Moreover, the “percent Bodipy-positive cells” value under setting [1] is 18.8% and 19.3%. Regarding `Cc1c(C(=O)c2ccccc2)c(N)c(-c2ccccc2)n1Cc1ccc(Cl)cc1`, under setting [3], the “percent Bodipy-positive cells” value turned out to be 10.5 ± 0.98%. For `CN1CCC(=C2c3ccccc3CCc3sccc32)CC1.O=C(O)CC(O)C(=O)O` [Pizotifen Malate], the “percent Bodipy-positive cells” value under setting [1] was found to be 94.3 ± 0.95%. For the molecule `CN(C)c1ccc(/C=C2/C(=O)Nc3ccccc32)cc1`, the “percent Bodipy-positive cells” value by setting is: under setting [1], 11% and 5.25%; (library stock concentration: 18.9 mM) 16.9 ± 0.94%. Regarding `CC1CC(OC(=O)C(O)c2ccccc2)CC(C)(C)N1C` (stereo unspecified) [Eucatropine hydrochloride], the “percent Bodipy-positive cells” value is 9.3 ± 5.5%. Moreover, the “percent Bodipy-positive cells” value (library stock concentration: 6.1 mM) worked out at 2.09 ± 1.8%. Moreover, the “percent Bodipy-positive cells” value under setting [1] worked out at 14.7 ± 4%. Consider `CC1=C(C(=O)OC2CCCCC2)C(c2ccc([N+](=O)[O-])cc2)C2=C(CC(C)(C)CC2=O)N1` (stereo unspecified), for which the “percent Bodipy-positive cells” value under setting [1] amounted to 92.2 ± 1.7%. With `c1cc2c(cc1C1CCCCC1)c1c3n2CCNC3CCC1` (stereo unspecified) [Tetrindole mesylate], the “percent Bodipy-positive cells” value under setting [1] stood at 59.5 ± 11%.

Turning to `C1CCN2C[C@@H]3C[C@@H](CN4CCCC[C@@H]34)[C@H]2C1` [Sparteine (-)], the “percent Bodipy-positive cells” value came to 21.7 ± 10%. `C1CCN2C[C@@H]3C[C@@H](CN4CCCC[C@@H]34)[C@H]2C1` [Sparteine sulfate]: the “percent Bodipy-positive cells” value came out at 4.6 ± 1.8% (library stock concentration: 6 mM) and 37.9 ± 5% under setting [1]. Turning to `COc1ccccc1S(=O)(=O)Nc1ccc2c(c1)CN(C)C(=O)N2`, the “percent Bodipy-positive cells” value is 33.4 ± 0.78% under setting [4]; 47.6 ± 9.8% under setting [5]; 44.8 ± 5.1% under setting [6]; 9.81 ± 0.33% under setting [2]; 58% and 45.8% under setting [1]. In the case of `COc1ccc2c(OC)c3ccoc3nc2c1OC` [Skimmianine], the “percent Bodipy-positive cells” value is 10.6 ± 4.6%. As for `CC[C@@H]1C(=O)N(C)c2cnc(Nc3ccc(C(=O)N[C@H]4CC[C@H](N5CCN(CC6CC6)CC5)CC4)cc3OC)nc2N1C(C)C` [Volasertib], under setting [1], the “percent Bodipy-positive cells” value came out at 97.41 ± 0.51%.
